Experimental data as given in PubChem BioAssay AID493014 (National Center for Advancing Translational Sciences (NCATS), 2011).
The list shows a part of the results. The main result of the screen is listed elsewhere. These columns were measured beside it and carry no call. Most of these compounds were active or inconclusive in the main read-out, so they are no random draw. Potencies come from curve fits of mixed quality, noted in brackets.

Experiment: qHTS Assay to Find Inhibitors of Chronic Active B-Cell Receptor Signaling
Settings: ABC-DLBCL IkBa-CBG/CBR reporter, luminescence ratio (green luciferase fused to IkBa over red control in TMD8 lymphoma cells), 4 h
Summary of the method: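 Doxycycline induced both beetle luciferases in TMD8 lymphoma cells; IKK-driven degradation limits the IkappaBalpha-fused green signal, while red luminescence normalises for cell number and nonspecific effects. Compounds tested up to 46 uM, 4 hrs.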

[1] = measured here: CBR red luminescence, cell number
[2] = measured here: IkBa-CBG green luminescence

Structure (SMILES): COc1ccc(C(=O)N/N=C(\C)c2ccccn2)cc1OC
- AC50 [1]: 35.5 µM [rising, single point]
- AC50 [2]: 35.5 µM [falling, single point]

Structure (SMILES): Cc1cccc(CSc2ccc3nnc(-c4ccccn4)n3n2)c1
- AC50 [1]: 1.41 µM [falling, full curve, poor fit]

Structure (SMILES): Cc1ccccc1NCC(=O)N/N=C/C(Br)=C/c1ccccc1
- AC50 [1]: 1.3 µM [rising, full curve, poor fit]

Structure (SMILES): COc1cccc(N/C(SC)=C(/C#N)C(=O)NCc2cccs2)c1
- AC50 [1]: 1.58 µM [rising, partial curve]

Structure (SMILES): O=C(Nc1ccc2c(c1)nc1n2CCN(Cc2ccccc2)C1)c1cccs1
- AC50 [1]: 32.6 µM [falling, single point]

Structure (SMILES): COc1ccccc1C(CNC(=O)c1cccc(S(=O)(=O)Nc2ccc(C)cc2)c1)N1CCCC1 (stereo not given)
- AC50 [1]: 23.1 µM [falling, single point]

Structure (SMILES): O=C(Cc1ccc(Cl)cc1Cl)OCC(=O)c1ccc[nH]1
- AC50 [1]: 6.51 µM [rising, single point]

Structure (SMILES): COc1ccc2nc(-c3ccccn3)[nH]c2c1
- AC50 [1]: 35.5 µM [falling, single point]

Structure (SMILES): COc1ccc(-c2nc3nc(C)c(Cc4ccccc4)c(=O)n3[nH]2)cc1
- AC50 [1]: 1.3 µM [falling, full curve]

Structure (SMILES): CCOc1nc2ccccc2cc1/C=C/C(=O)O
- AC50 [1]: 35.5 µM [rising, single point]

Structure (SMILES): CCN1CCN(C(=O)c2cn(CCOC)c(=O)c3c2c2ccccc2n3C)CC1
- AC50 [1]: 11.6 µM [rising, partial curve]

Structure (SMILES): Cc1cc(-c2ccccc2)nn1-c1nc2c(c(=O)[nH]c(=O)n2C)n1C
- AC50 [1]: 13 µM [rising, partial curve, poor fit]

Structure (SMILES): COCCn1c(=O)[nH]c2cc(C(=O)Nc3cccc(C(C)=O)c3)ccc2c1=O
- AC50 [1]: 0.316 µM [falling, partial curve, poor fit]

Structure (SMILES): COc1ccc(Cl)cc1NC(=O)CN1C(=O)CCS(=O)(=O)c2ccccc21
- AC50 [1]: 0.103 µM [rising, full curve, poor fit]

Structure (SMILES): COc1ccc(C(=O)NCCc2c[nH]c3ccccc23)cc1OC
- AC50 [1]: 20 µM [falling, partial curve, poor fit]

Structure (SMILES): COc1ccc2[nH]c(=O)c(CN(C(=O)COc3ccccc3)C(C)C)cc2c1
- AC50 [1]: 1.41 µM [rising, partial curve, poor fit]

Structure (SMILES): Cc1cc(C)c2oc(C(=O)Nc3ccc(S(=O)(=O)Nc4nccc(C)n4)cc3)cc(=O)c2c1
- AC50 [1]: 0.562 µM [rising, full curve, poor fit]

Structure (SMILES): O=C(Nc1nc2ccccc2s1)c1ccc([N+](=O)[O-])o1
- AC50 [1]: 1.26 µM [falling, full curve]

Structure (SMILES): CC(C(=O)O/N=C(\N)c1ccccn1)c1ccc([N+](=O)[O-])cc1 (stereo not given)
- AC50 [1]: 7.94 µM [falling, partial curve, poor fit]

Structure (SMILES): COc1ccc(-c2oc3cccnc3c2C#CCO)cc1
- AC50 [1]: 3.98 µM [rising, partial curve, poor fit]

Structure (SMILES): COc1ccccc1-c1cc(C(=O)NC(C)c2ccccc2)no1 (stereo not given)
- AC50 [1]: 15.8 µM [falling, partial curve, poor fit]

Structure (SMILES): O=C(CSCc1ccc(F)cc1)Nc1nc2c(s1)CCCC2
- AC50 [1]: 7.08 µM [rising, partial curve, poor fit]

Structure (SMILES): Cc1cc(C)n(Cc2ccc(C(=O)N/N=C/c3ccc(-c4ccc([N+](=O)[O-])cc4)o3)o2)n1
- AC50 [1]: 7.94 µM [rising, partial curve]

Structure (SMILES): Cc1ccc(Oc2nc3ccccc3n3cccc23)cc1
- AC50 [1]: 7.31 µM [rising, partial curve]

Structure (SMILES): CCOc1ccc(NC(=O)N(CCN(C)C)C(C)c2cccnc2)cc1 (stereo not given)
- AC50 [1]: 20 µM [rising, single point]

Structure (SMILES): Cc1ccccc1OCC(=O)NN1Cc2ccccc2C1=N
- AC50 [1]: 6.51 µM [rising, partial curve, poor fit]

Structure (SMILES): COc1ccc(CCNc2oc(-c3ccccc3OC)nc2C#N)cc1
- AC50 [1]: 29.1 µM [falling, single point]

Structure (SMILES): Cc1ccc(Cl)cc1N1CCN(C(=O)c2ccc(CS(=O)Cc3ccc(Cl)cc3)o2)CC1 (stereo not given)
- AC50 [1]: 15.8 µM [falling, single point]

Structure (SMILES): CCOC(=O)c1cc(C(=O)Nc2cccc(C)c2)nn1C
- AC50 [1]: 12.6 µM [falling, partial curve]

Structure (SMILES): CC(=O)NCCOc1cccc2ccccc12
- AC50 [1]: 8.2 µM [rising, single point]

Structure (SMILES): COc1cccc(NC(=S)NN=C2CCCCCC2)c1
- AC50 [1]: 0.794 µM [falling, full curve]
- AC50 [2]: 25.1 µM [falling, single point]

Structure (SMILES): Cc1ccc(SCC(=O)Nc2ncc(C)s2)cc1
- AC50 [1]: 12.6 µM [falling, partial curve, poor fit]

Structure (SMILES): COc1ccc(-c2noc(CSc3nc(N)cc(=O)[nH]3)n2)cc1OC
- AC50 [1]: 10 µM [rising, partial curve, poor fit]

Structure (SMILES): O=C(COc1ccc(C(=O)c2ccccc2)cc1)NCc1ccc(F)cc1
- AC50 [1]: 3.26 µM [rising, single point]
- AC50 [2]: 3.26 µM [falling, full curve]

Structure (SMILES): CCOC(=O)Cc1csc(NC(=O)COc2ccccc2)n1
- AC50 [1]: 29.1 µM [falling, single point]

Structure (SMILES): CNc1cc([N+](=O)[O-])ccc1OCc1ccccc1
- AC50 [1]: 1 µM [rising, partial curve, poor fit]

Structure (SMILES): O=C(CNC(=O)c1ccc(-c2ccccc2)cc1)OCc1ccc(Br)cc1
- AC50 [1]: 29.1 µM [rising, single point]

Structure (SMILES): N#Cc1cc(-c2ccccc2)nnc1Sc1ccccc1
- AC50 [1]: 0.517 µM [rising, full curve, poor fit]

Structure (SMILES): Cc1ccc(/C=N/NC(=O)NC2CCCCC2)o1
- AC50 [1]: 0.398 µM [falling, full curve, poor fit]

Structure (SMILES): CCOc1ccc(N2C(=O)c3cccnc3C2Nc2ccc(F)cc2)cc1 (stereo not given)
- AC50 [1]: 0.447 µM [falling, full curve, poor fit]

Structure (SMILES): COc1cccc(-c2ccc(SCC(=O)c3ccccc3)nn2)c1
- AC50 [1]: 35.5 µM [falling, single point]

Structure (SMILES): Cc1ccc(/C=C2/SC(=S)N(CCC(=O)N3CCN(c4ccccc4)CC3)C2=O)cc1
- AC50 [1]: 16.4 µM [falling, single point]

Structure (SMILES): Cc1ccc(NC(=O)COC(=O)CN2CSCC2=O)cc1C
- AC50 [1]: 12.6 µM [rising, partial curve]

Structure (SMILES): COC(=O)c1ccc2[nH]c(CO)c(-c3ccccc3)c2c1
- AC50 [1]: 35.5 µM [falling, single point]

Structure (SMILES): CCN(CC)CCN(C)C1CCC(c2ccccc2)CC1 (stereo not given)
- AC50 [1]: 32.6 µM [falling, single point]

Structure (SMILES): Cc1nc(-c2ccc(S(=O)(=O)Nc3ccc(Br)cc3Cl)s2)cs1
- AC50 [1]: 15.8 µM [rising, single point]

Structure (SMILES): CC(C)C(C(=O)O)N1C(=O)/C(=C/C=C/c2ccco2)SC1=S (stereo not given)
- AC50 [1]: 17.8 µM [falling, single point]

Structure (SMILES): C=CCOC(=O)C1=C[C@@H](C2CCCCC2)C[C@@H](OCc2ccc(CO)cc2)O1
- AC50 [1]: 22.4 µM [rising, single point]

Structure (SMILES): Cc1ccc(C)c(S(=O)(=O)N2CCCOC2CNC(=O)C(=O)NCc2ccncc2)c1 (stereo not given)
- AC50 [1]: 0.447 µM [falling, partial curve, poor fit]

Structure (SMILES): Cc1cccc(NC(=O)CSc2c3c(nc4ccccc24)CCC3)n1
- AC50 [1]: 3.98 µM [falling, partial curve, poor fit]

Structure (SMILES): CCC(C)Sc1cccc(-c2nc3cc(C)ccn3c2NCc2ccccc2)c1 (stereo not given)
- AC50 [1]: 29.1 µM [falling, single point]
- AC50 [2]: 16.4 µM [rising, single point]

Structure (SMILES): Cc1nc(NC(=S)Nc2ccccc2)sc1C
- AC50 [1]: 7.08 µM [falling, partial curve]
- AC50 [2]: 3.98 µM [falling, full curve]

Structure (SMILES): COc1cc(/C=C/C(=O)N(Cc2ccccc2)c2ccccn2)cc(OC)c1OC
- AC50 [1]: 3.66 µM [rising, partial curve, poor fit]

Structure (SMILES): Cc1nc(NC(=O)/C=C/c2ccccc2)n[nH]1
- AC50 [1]: 18.4 µM [falling, partial curve]

Structure (SMILES): O=C(CCN1C(=O)c2ccccc2C1=O)Nc1ccccn1
- AC50 [1]: 29.1 µM [falling, single point]

Structure (SMILES): CCOc1ncccc1C(=O)Nc1cccc(S(=O)(=O)N2CCCCC2)c1
- AC50 [1]: 2.59 µM [falling, partial curve, poor fit]

Structure (SMILES): CCOC(=O)c1sc(NC(=O)CSc2ncn[nH]2)c(C#N)c1C
- AC50 [1]: 1.3 µM [rising, full curve, poor fit]

Structure (SMILES): CCOC(=O)C(C)Sc1ncnc2c1nnn2-c1ccc(F)cc1 (stereo not given)
- AC50 [1]: 11.2 µM [falling, single point]

Structure (SMILES): N#Cc1c(NC(=O)c2cccnc2)sc2c1CCC2
- AC50 [1]: 32.6 µM [falling, single point]

Structure (SMILES): Cc1cc(-c2ccc(C)c(S(=O)(=O)NCCCN3CCN(c4ccccc4)CC3)c2)on1
- AC50 [1]: 22.4 µM [falling, single point]

Structure (SMILES): COCc1cc(=O)n2[nH]c(-c3ccc(C)cc3)cc2n1
- AC50 [1]: 5.8 µM [falling, partial curve]

Structure (SMILES): Cc1cccc(NC(=S)NCc2ccc3c(c2)cc(C)n3C)c1C
- AC50 [2]: 5.62 µM [falling, single point]

Structure (SMILES): Cc1nnc(SCC(=O)NCc2ccccc2)[nH]c1=O
- AC50 [1]: 29.1 µM [rising, single point]

Structure (SMILES): COc1cccc(NC(=O)CNC(=O)c2cccs2)c1
- AC50 [1]: 16.4 µM [falling, single point]

Structure (SMILES): Cc1cccc(-c2cc(N)n(-c3ccccc3)n2)c1
- AC50 [1]: 15.8 µM [falling, partial curve, poor fit]
